{"sequences": {"note": "The chains behind the UniProt entries cited, without tags or fusion partners. Where a name states a change or a piece, a line headed by the entry shows the natural chain unless it says otherwise. Residues count along the entry.", "UniProt P07585, residues 31-359": "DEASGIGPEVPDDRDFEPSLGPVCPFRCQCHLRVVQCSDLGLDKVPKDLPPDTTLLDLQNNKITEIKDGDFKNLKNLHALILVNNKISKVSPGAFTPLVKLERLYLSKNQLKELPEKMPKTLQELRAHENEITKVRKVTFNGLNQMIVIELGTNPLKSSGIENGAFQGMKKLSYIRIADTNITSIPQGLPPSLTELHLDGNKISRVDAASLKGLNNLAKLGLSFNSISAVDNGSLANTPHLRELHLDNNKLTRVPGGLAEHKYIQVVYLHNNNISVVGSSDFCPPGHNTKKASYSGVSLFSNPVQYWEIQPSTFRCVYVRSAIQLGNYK", "UniProt P05556": "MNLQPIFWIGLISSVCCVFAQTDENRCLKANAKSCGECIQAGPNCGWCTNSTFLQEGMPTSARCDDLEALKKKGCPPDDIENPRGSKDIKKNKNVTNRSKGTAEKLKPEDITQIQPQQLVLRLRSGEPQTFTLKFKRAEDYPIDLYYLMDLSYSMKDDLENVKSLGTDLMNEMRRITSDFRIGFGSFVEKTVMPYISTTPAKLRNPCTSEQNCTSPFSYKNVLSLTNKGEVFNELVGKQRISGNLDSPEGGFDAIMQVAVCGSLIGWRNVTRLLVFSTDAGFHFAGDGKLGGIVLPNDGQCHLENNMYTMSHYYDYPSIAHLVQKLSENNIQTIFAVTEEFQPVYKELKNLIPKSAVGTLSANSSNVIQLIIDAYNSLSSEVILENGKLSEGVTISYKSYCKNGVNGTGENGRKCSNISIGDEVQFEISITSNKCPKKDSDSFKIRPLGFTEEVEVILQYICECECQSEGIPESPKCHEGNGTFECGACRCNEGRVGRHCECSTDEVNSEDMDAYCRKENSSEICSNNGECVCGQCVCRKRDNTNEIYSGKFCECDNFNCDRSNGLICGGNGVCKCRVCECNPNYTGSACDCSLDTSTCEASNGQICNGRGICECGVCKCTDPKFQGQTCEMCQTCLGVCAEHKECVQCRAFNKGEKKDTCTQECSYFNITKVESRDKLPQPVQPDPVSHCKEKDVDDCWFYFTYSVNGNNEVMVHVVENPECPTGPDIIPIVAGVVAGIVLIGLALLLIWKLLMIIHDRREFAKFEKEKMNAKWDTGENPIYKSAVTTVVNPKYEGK"}, "source": "paper PMC8421641", "target": "Decorin (UniProt P07585)", "experiment": "co-IP; cell lysate (Co-IP kit buffer with protease inhibitors), pre-cleared with protein A/G agarose beads; primary antibody at 4°C overnight, then Protein A/G beads at 4°C for 12 h; western blot; IP with DCN antibody, blot for integrin β1; cell line not stated", "note": "Results are given in words; binding and its absence hold for the method and conditions named. Binding seen in cells or lysates may run through a third protein. Some results given as binding are weak or reduced against the parent protein; the word gives no strength."}
{"substance": "Integrin β1 (from UniProt P05556 21-798) (receptor)", "values": [{"measurement": "binding", "result": "binds"}]}
